Publication PMC11812572
Results are given in words; binding and its absence hold for the method and conditions named. Tags and fused reporters may be left off the sequences shown.

Molecular target: mScarlet-tagged human NuMA C-terminal fragment aa 1701-1981, mScarlet-NuMA^(C-term S1) (human) (UniProt Q14980)
Assay: mass photometry; TwoMP mass photometer; 5-20 nM protein in the respective TIRF microscopy assay buffer without methylcellulose; monomer to dimer; both purified

binding: no binding (tested: 5-20 nM)
B1: mScarlet-tagged human NuMA C-terminal fragment aa 1701-1981, mScarlet-NuMA^(C-term S1) (domain or fragment, UniProt Q14980-1 1701-1981)
chain: QVATDALKSREPQAKPQLDLSIDSLDLSCEEGTPLSITSKLPRTQPDGTSVPGEPASPISQRLPPKVESLESLYFTPIPARSQAPLESSLDSLGDVFLDSGRKTRSARRRTTQIINITMAKKLDVEEPDSANSSFYSTRSAPASQASLRATSSTQSLARLGSPDYGNSALLSLPGYRPTTRSSARRSQAGVSSGAPPGRNSFYMGTCQDEPEQLDDWNRIAELQQRNRVCPPHLKTCYPLESRPSLSLGTITDEEMKTGDPQETLRRASMQPIQIAEGTGI
